From article PMC7819943, “Rice protein-binding microarrays: a tool to detect cis-acting elements near promoter regions in rice”
This is one part of the list.

The chains behind the UniProt entries cited, without tags or fusion partners.
UniProt Q0JBA9, entry or part of it: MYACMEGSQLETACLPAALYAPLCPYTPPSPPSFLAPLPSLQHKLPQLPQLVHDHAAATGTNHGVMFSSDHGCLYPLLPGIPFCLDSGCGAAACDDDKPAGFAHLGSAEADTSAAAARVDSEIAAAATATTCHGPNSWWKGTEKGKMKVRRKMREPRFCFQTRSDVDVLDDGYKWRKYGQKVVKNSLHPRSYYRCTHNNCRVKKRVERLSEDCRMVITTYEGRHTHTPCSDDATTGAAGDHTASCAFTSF

Biological target: OsWRKY34 (Oryza sativa, UniProt Q0JBA9 1-250)
Experiment: protein-binding microarray (RPBM); PBS, 2% BSA, 51.3 ng/ul salmon testes DNA, 50 uM zinc acetate, 200 nM TF, 25 C, 1 h; high values mean tight binding
Details: protein: recombinant; tags: N-terminal polyhistidine and DsRed monomer fusion (pET32a); label: CyDye5-dUTP incorporated in the synthesized complementary strand; 3' TTTTT single-stranded linker to array surface; dsDNA, one strand shown
Summary of the method: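 Per-feature fluorescence intensity (arbitrary units), read on an Axon 4000B scanner, is the binding signal. Transcription factors carrying an N-terminal polyhistidine tag and DsRed fusion were expressed in E. coli BL21-CodonPlus and purified on Ni–NTA. A custom Agilent array, made double-stranded by primer extension with Cy5-dUTP and blocked with 2% BSA, was incubated with 200 nM protein in PBS, 2% BSA, salmon testes DNA and 50 µM zinc acetate at 25 °C for 1 h and then washed.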

Sequence	binding signal
ACATCGCCGGGCGGCTGCCTCGACCCCTCCCGTGATCTCCCGGAGTCACCTAGTGCAG	8080 fluorescence intensity (a.u.)
TACTTGGAGTCTTCCTCGCAGTCAACCGTCCATAAAAAATCGGAGTCACCTAGTGCAG	8320 fluorescence intensity (a.u.)
CTCCAAAACCTCACCCACGTACCACTTATCACAACCACGACGGAGTCACCTAGTGCAG	8170 fluorescence intensity (a.u.)
TATTTTGTACTTCTTGAAAATGTTCCTTTCTTTTCTGTCACGGAGTCACCTAGTGCAG	9740 fluorescence intensity (a.u.)
GACCTGCCTACATATATTTACCAGCGTATTAGCATAGTCACGGAGTCACCTAGTGCAG	9080 fluorescence intensity (a.u.)
GCTCTCTTTCCGCTTCTACCCTCGTCACGTCCACGAAATCCGGAGTCACCTAGTGCAG	14900 fluorescence intensity (a.u.)
AATTAGGTATACCCTCCTCAGTCCTCACTTAGTCACCTTTCGGAGTCACCTAGTGCAG	8080 fluorescence intensity (a.u.)
ATCCCACCATTACCGCGGCCGCTTTCACATCTCCTCCTCCCGGAGTCACCTAGTGCAG	8200 fluorescence intensity (a.u.)
TCTTTTCCCCACCTTATCGCCGCCGGTCTCCTCCTCCGACCGGAGTCACCTAGTGCAG	8060 fluorescence intensity (a.u.)
ATAAATAGACTGAAATGTCCTCGTTCTCTGTTTCTCTTTCCGGAGTCACCTAGTGCAG	8040 fluorescence intensity (a.u.)
CCGTTCTATATTACAAGTCGCTTTAACTTTTTCTTAACCACGGAGTCACCTAGTGCAG	14000 fluorescence intensity (a.u.)
GTGCATGTGTGTGTTGATTTGGCCGTGTAATAAAAAAAGACGGAGTCACCTAGTGCAG	10200 fluorescence intensity (a.u.)
TGCTTTCCGTCCACGTATTCATCGGGCTGCTTCTCCTCTCCGGAGTCACCTAGTGCAG	8400 fluorescence intensity (a.u.)
TGTTTGCACTTGAATTCATCCCATAGTTATATTTTTTTCCCGGAGTCACCTAGTGCAG	9320 fluorescence intensity (a.u.)
TGGCATTTGTATTGTATTTCTATTCAAACCGAGGGGTTTTCGGAGTCACCTAGTGCAG	8540 fluorescence intensity (a.u.)
CTACAGTGTACTCTTCGCTTATGGCTCCTACTTCACCAACCGGAGTCACCTAGTGCAG	10500 fluorescence intensity (a.u.)
GACGGCACGTAGGGTGGGGTGGGTCTGTGCTGATGCATGTCGGAGTCACCTAGTGCAG	11300 fluorescence intensity (a.u.)
GAGCCGCTCGTAAAGTCAACGGTCAACCCCGCCGCACGGACGGAGTCACCTAGTGCAG	12600 fluorescence intensity (a.u.)
ATTTTCCACGTCATCATGGTGCGGGAGACACGTGTCCACACGGAGTCACCTAGTGCAG	8800 fluorescence intensity (a.u.)
TGTTGTTGGTTTTCGTATAACATTTGACCATTTCTCTTATCGGAGTCACCTAGTGCAG	8240 fluorescence intensity (a.u.)
ATGATCGTTCACTCACCAGCGAGTACAAGCTACTCCTTCCCGGAGTCACCTAGTGCAG	8420 fluorescence intensity (a.u.)
TAGCTTAGCCACCTTTTGATTTGCTTCAATTCTCTCTCATCGGAGTCACCTAGTGCAG	8670 fluorescence intensity (a.u.)

Sequence	binding signal
CTGATCCGCCGCCTCGGTCCAGCATCGACAGCCACGCCTTCGGAGTCACCTAGTGCAG	10400 fluorescence intensity (a.u.)
CCACGGGTATCCATGGGTCTTGTGGGTGTAGGGGAGACTCCGGAGTCACCTAGTGCAG	8400 fluorescence intensity (a.u.)
GCTCGGCTTCCTCTCCGCTCGCGTGCTTCGCGCCTTCGTCCGGAGTCACCTAGTGCAG	9260 fluorescence intensity (a.u.)
CTCTTCCTCTCCGCGTAGAGAGATCTGGTTGCTCCATCGACGGAGTCACCTAGTGCAG	8380 fluorescence intensity (a.u.)
CCACACCTTTATTCGAATCTTGCGTCCTTTGATGCGGTAACGGAGTCACCTAGTGCAG	9540 fluorescence intensity (a.u.)
AGTTTGGGTTGTCGCCGGCACCGGAGAAGAAGAGGAATTCCGGAGTCACCTAGTGCAG	10200 fluorescence intensity (a.u.)
GCTTTCTCTCTCTCGCTCACGTCAAGGTGGTCAGGGCGCCCGGAGTCACCTAGTGCAG	8640 fluorescence intensity (a.u.)
GCCGCCCGCTTGCCGTGCTCTTTTGCTGCTCGCCGCTGGCCGGAGTCACCTAGTGCAG	8200 fluorescence intensity (a.u.)
GACAACCGAGTCGTTGACTTCGGAATTCGCGGCAAGTTGCCGGAGTCACCTAGTGCAG	8920 fluorescence intensity (a.u.)
CATCTAATACGTCGTCTAAAAATTTCCTTTTCGCAAGCTACGGAGTCACCTAGTGCAG	9030 fluorescence intensity (a.u.)
AATCTGCTTGTTAATTCACCTGGTAATGCTGTCTTTTATTCGGAGTCACCTAGTGCAG	8720 fluorescence intensity (a.u.)
TGAGTTGTTTTGTTGATAGGTATAGATATGAATCGAATTACGGAGTCACCTAGTGCAG	8950 fluorescence intensity (a.u.)
GTCTAAGGCTTTTATCATCTTATATCACACTCGCATAGCTCGGAGTCACCTAGTGCAG	9790 fluorescence intensity (a.u.)
CCTCGTCTTTGTGCTTGCGCCTTCCCCGCAACCTAGATCTCGGAGTCACCTAGTGCAG	8040 fluorescence intensity (a.u.)
ACTAGTCACACAAATTACCGTGCTTCATCAACGACACTTTCGGAGTCACCTAGTGCAG	9610 fluorescence intensity (a.u.)
AATTTTCGCCAAGCTTGTACCTTTACGCGGCATTTGATATCGGAGTCACCTAGTGCAG	11900 fluorescence intensity (a.u.)
TCAACCCACCAGCAGTAAACCAACCAACGTGCCAGCGACTCGGAGTCACCTAGTGCAG	9820 fluorescence intensity (a.u.)
ATTTGTCAGCACACCACGTATGCATGCCCTGCTTTATCTTCGGAGTCACCTAGTGCAG	8120 fluorescence intensity (a.u.)
CTTTTTCTTATAGTCTTCTGGGTCTCCATTTTTAAGTCTTCGGAGTCACCTAGTGCAG	10500 fluorescence intensity (a.u.)
ACAACTATATAGCAAAATTGTTCGTGGTTTCGTTCAGCTTCGGAGTCACCTAGTGCAG	8580 fluorescence intensity (a.u.)
ATGTGAGACTGTTTTTTAACTTTTGTTCGGGGTTAGCTCTCGGAGTCACCTAGTGCAG	13100 fluorescence intensity (a.u.)
GCCCCTACACCATCAACAACGTCCCATCGTCTCTATTCGGCGGAGTCACCTAGTGCAG	8970 fluorescence intensity (a.u.)

A portion of the results above, as a working copy:
Sequence	binding signal
TGTTTGCACTTGAATTCATCCCATAGTTATATTTTTTTCCCGGAGTCACCTAGTGCAG	9320 fluorescence intensity (a.u.)
TGGCATTTGTATTGTATTTCTATTCAAACCGAGGGGTTTTCGGAGTCACCTAGTGCAG	8540 fluorescence intensity (a.u.)
CTACAGTGTACTCTTCGCTTATGGCTCCTACTTCACCAACCGGAGTCACCTAGTGCAG	10500 fluorescence intensity (a.u.)
GACGGCACGTAGGGTGGGGTGGGTCTGTGCTGATGCATGTCGGAGTCACCTAGTGCAG	11300 fluorescence intensity (a.u.)
GAGCCGCTCGTAAAGTCAACGGTCAACCCCGCCGCACGGACGGAGTCACCTAGTGCAG	12600 fluorescence intensity (a.u.)
ATTTTCCACGTCATCATGGTGCGGGAGACACGTGTCCACACGGAGTCACCTAGTGCAG	8800 fluorescence intensity (a.u.)
TGTTGTTGGTTTTCGTATAACATTTGACCATTTCTCTTATCGGAGTCACCTAGTGCAG	8240 fluorescence intensity (a.u.)
ATGATCGTTCACTCACCAGCGAGTACAAGCTACTCCTTCCCGGAGTCACCTAGTGCAG	8420 fluorescence intensity (a.u.)
